# No constants are given. Whether binding was seen depends on the method and setting. Some entries that bind do so weakly or less than the wild type.
# Protein sequences, listed by entry. Tags and fused reporters are not part of them. Residues count along the entry.
# UniProt P22003, residues 317-454: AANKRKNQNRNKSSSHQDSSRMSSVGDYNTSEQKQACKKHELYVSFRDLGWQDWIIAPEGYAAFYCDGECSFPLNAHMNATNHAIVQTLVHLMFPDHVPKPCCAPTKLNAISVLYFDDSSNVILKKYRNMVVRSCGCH
# UniProt P18075, residues 293-431: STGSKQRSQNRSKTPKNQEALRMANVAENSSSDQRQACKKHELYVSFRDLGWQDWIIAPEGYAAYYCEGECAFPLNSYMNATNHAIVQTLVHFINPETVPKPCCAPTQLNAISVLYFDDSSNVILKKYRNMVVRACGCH
# T1: BMP14 (Bone Morphogenetic Protein 14) (UniProt P43026)
# T1 sequence (looked up): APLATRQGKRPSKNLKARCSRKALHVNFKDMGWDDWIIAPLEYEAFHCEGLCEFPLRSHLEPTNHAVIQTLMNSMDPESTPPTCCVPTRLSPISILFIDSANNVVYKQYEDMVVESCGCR
# T2: BMP4 (Bone Morphogenetic Protein 4) (UniProt P12644)
# T2 sequence (looked up): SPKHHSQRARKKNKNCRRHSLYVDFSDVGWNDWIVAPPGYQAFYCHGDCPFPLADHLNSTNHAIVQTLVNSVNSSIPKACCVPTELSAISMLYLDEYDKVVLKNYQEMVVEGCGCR
# T3: BMP2 (Bone Morphogenetic Protein 2) (UniProt P12643)
# T3 sequence (looked up): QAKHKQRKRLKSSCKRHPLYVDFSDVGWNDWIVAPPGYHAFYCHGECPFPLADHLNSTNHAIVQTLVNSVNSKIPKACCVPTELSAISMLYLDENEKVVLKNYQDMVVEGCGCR
# Biological target: T1, BMP14 (Bone Morphogenetic Protein 14)
# Assay: ELISA-format assay
row,Binder,binding
1,GGGAWEAFSSLSGSRV,binds
2,"SSSVDLYFPLKGDVVSR [peptide including the amino acid sequence of SEQ ID NO:93 (BMP-binding peptide, Motif 2)]",binds
3,GGALGFPLKGEVVEGWA,binds
4,"SSWEVFSSLESGSVGAGAGSR [peptide including the amino acid sequence of SEQ ID NO:58 (BMP-binding peptide, Motif 1)]",binds

# Biological target: T2, BMP4 (Bone Morphogenetic Protein 4)
# Assay: ELISA-format assay
row,Binder,binding
1,GGGAWEAFSSLSGSRV,binds
2,"SSSVDLYFPLKGDVVSR [peptide including the amino acid sequence of SEQ ID NO:93 (BMP-binding peptide, Motif 2)]",binds
3,GGALGFPLKGEVVEGWA,binds
4,"SSWEVFSSLESGSVGAGAGSR [peptide including the amino acid sequence of SEQ ID NO:58 (BMP-binding peptide, Motif 1)]",binds

# Biological target: BMP5 (Bone Morphogenetic Protein 5) (UniProt P22003)
# Assay: ELISA-format assay
row,Binder,binding
1,GGGAWEAFSSLSGSRV,binds

# Biological target: BMP7 (Bone Morphogenetic Protein 7) (UniProt P18075)
# Assay: ELISA-format assay
row,Binder,binding
1,GGGAWEAFSSLSGSRV,binds
2,"SSSVDLYFPLKGDVVSR [peptide including the amino acid sequence of SEQ ID NO:93 (BMP-binding peptide, Motif 2)]",binds
3,GGALGFPLKGEVVEGWA,binds
4,"SSWEVFSSLESGSVGAGAGSR [peptide including the amino acid sequence of SEQ ID NO:58 (BMP-binding peptide, Motif 1)]",binds

# Biological target: T3, BMP2 (Bone Morphogenetic Protein 2)
# Assay: ELISA-format assay; immobilized peptide also extracted BMP2 from spiked plasma and bone marrow aspirate
row,Binder,binding
1,GGGAWEAFSSLSGSRV,binds
2,"SSSVDLYFPLKGDVVSR [peptide including the amino acid sequence of SEQ ID NO:93 (BMP-binding peptide, Motif 2)]",binds
3,GGALGFPLKGEVVEGWA,binds
4,"SSWEVFSSLESGSVGAGAGSR [peptide including the amino acid sequence of SEQ ID NO:58 (BMP-binding peptide, Motif 1)]",binds
